Results taken from paper PMC3862839, “From Knock-Out Phenotype to Three-Dimensional Structure of a Promising Antibiotic Target from Streptococcus pneumoniae” (PLoS ONE, 2013).
These are yes or no findings as the source states them, for the method shown. Some results given as binding are weak or reduced against the parent protein; the word gives no strength.

Legend:
[1] = biological target: Streptococcus pneumoniae dihydrodipicolinate synthase (Streptococcus pneumoniae) (UniProt Q97R25); assay: crystal structure; X-ray, 1.9 Å, space group P22(1)2(1), two monomers ('tight' dimer) in the asymmetric unit; the crystallographic two-fold axis generates the tetramer; both purified
[2] = biological target: Streptococcus pneumoniae dihydrodipicolinate synthase (Streptococcus pneumoniae) (UniProt Q97R25); assay: dynamic light scattering; 59 µM Sp-DHDPS, 20°C, scattering angle 90 degrees; average hydrodynamic radius; both purified

B1: Streptococcus pneumoniae dihydrodipicolinate synthase (enzyme, UniProt Q97R25 1-311, looked up)
chain: MSYQDLKKCKIITAFITPFHEDGSINFDAIPALIEHLLAHHTDGILLAGTTAESPTLTHDEELELFAAVQKVVNGRVPLIAGVGTNDTRDSIEFVKEVAEFGGFAAGLAIVPYYNKPSQEGMYQHFKTIADASDLPIIIYNIPGRVVVELTPETMLRLADHPNIIGVKECTSLANMAYLIEHKPEEFLIYTGEDGDAFHAMNLGADGVISVASHTNGDEMHEMFTAIAESDMKKAAAIQRKFIPKVNALFSYPSPAPVKAILNYMGFEAGPTRLPLVPAPEEDAKRIIKVVVDGDYEATKATVTGVLRPDY
notes: Dihydrodipicolinate synthase (DHDPS, product of dapA) of Streptococcus pneumoniae; Homotetramer (dimer of 'tight' dimers) in solution and in the crystal; also called Sp-DHDPS; sp-DHDPS
binding [1]: binds
binding [2]: binds
